Measurements reported in PubChem BioAssay AID504793 (Drosophila RNAi Screening Center, 2011).
In all, the deposit lists about 23,000 reagents; shown is an unselected part of those with a known target gene and a result. In the full data, 62 (0.27%) got an active call. 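Calls come from follow-up tests whose scores are not deposited, so confirmed genes may have low counts here; counts are not normalised per plate.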 Raw values are not corrected between plates. Reagents against one gene are numbered here. Names joined by + are all predicted targets of the reagent. No sequences are given here.

- Screen: 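Genes required for cells to halt at G2/M after double-strand DNA breaks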 (primary screen)
- System: Drosophila S2R+ cells
- Reagent: long dsRNA against Drosophila genes, about 0.25 µg dsRNA per well
- Time to read-out: 4 days of dsRNA, then 4 hours of drug before read-out
- Challenge: doxorubicin 0.5 µM for 4 hours to cause double-strand breaks, in cells also given a low, harmless dose of dsRNA against nbs to sensitise the assay
- Read-out: 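Mitotic index as the number of phospho-histone H3-positive cells in each well following doxorubicin, given as raw counts without normalisation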
- Direction: mitotic cells: higher = more cells in mitosis, weaker G2 arrest
- Rule for the call: 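a call needs confirmation in secondary tests, with other dsRNAs and a check of mitotic timing without damage, not just a high primary count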
- Meaning of the calls: active = confirmed in follow-up tests; inactive = not confirmed

CG32533 (GeneID 32933) #1
- mitotic cells, replicate 1: 6
- Outcome: inactive

CG32533 (GeneID 32933) #2
- mitotic cells, replicate 1: 7
- Outcome: inactive

CG32533 (GeneID 32933) #3
- mitotic cells, replicate 1: 1
- Outcome: inactive

CG1737 (GeneID 32077) #1
- mitotic cells, replicate 1: 10
- Outcome: inactive

CG1737 (GeneID 32077) #2
- mitotic cells, replicate 1: 5
- Outcome: inactive

Mur11Da (GeneID 318139)
- mitotic cells, replicate 1: 4
- Outcome: inactive

CG18787 + CG18789
- mitotic cells, replicate 1: 10
- Outcome: inactive

frm (GeneID 38624) #1
- mitotic cells, replicate 1: 15
- Outcome: inactive

frm (GeneID 38624) #2
- mitotic cells, replicate 1: 4
- Outcome: inactive

CG1463 (GeneID 32211)
- mitotic cells, replicate 1: 8
- Outcome: inactive

CG18858 + CG31683
- mitotic cells, replicate 1: 10
- Outcome: inactive

CG2111 (GeneID 31995) #1
- mitotic cells, replicate 1: 11
- Outcome: inactive

CG2111 (GeneID 31995) #2
- mitotic cells, replicate 1: 3
- Outcome: inactive

Rpn7 (GeneID 42641) #1
- mitotic cells, replicate 1: 55
- Outcome: inactive

Rpn7 (GeneID 42641) #2
- mitotic cells, replicate 1: 28
- Outcome: inactive

CG3719 (GeneID 44736)
- mitotic cells, replicate 1: 6
- Outcome: inactive

mRpL11 (GeneID 41757)
- mitotic cells, replicate 1: 5
- Outcome: inactive

capu (GeneID 33611) #1
- mitotic cells, replicate 1: 7
- Outcome: inactive

capu (GeneID 33611) #2
- mitotic cells, replicate 1: 3
- Outcome: inactive

ADD1 (GeneID 36278) #1
- mitotic cells, replicate 1: 6
- Outcome: inactive

ADD1 (GeneID 36278) #2
- mitotic cells, replicate 1: 3
- Outcome: inactive

CG8176 (GeneID 261329)
- mitotic cells, replicate 1: 4
- Outcome: inactive

3 of these entries, reformatted.
predicted target,reagent no.,"mitotic cells, replicate 1",Outcome
ADD1 (GeneID 36278),1,6,inactive
ADD1 (GeneID 36278),2,3,inactive
CG8176 (GeneID 261329),1,4,inactive

More results follow.
ArgRS (GeneID 32539)
- mitotic cells, replicate 1: 11
- Outcome: inactive

CG5445 (GeneID 32722)
- mitotic cells, replicate 1: 3
- Outcome: inactive

CG31199 (GeneID 42456)
- mitotic cells, replicate 1: 7
- Outcome: inactive

Gbs-76A (GeneID 40102)
- mitotic cells, replicate 1: 8
- Outcome: inactive

RpS23 (GeneID 36576) #1
- mitotic cells, replicate 1: 7
- Outcome: inactive

RpS23 (GeneID 36576) #2
- mitotic cells, replicate 1: 5
- Outcome: inactive

mask (GeneID 50070) #1
- mitotic cells, replicate 1: 25
- Outcome: inactive

mask (GeneID 50070) #2
- mitotic cells, replicate 1: 14
- Outcome: inactive

mask (GeneID 50070) #3
- mitotic cells, replicate 1: 25
- Outcome: inactive

mask (GeneID 50070) #4
- mitotic cells, replicate 1: 18
- Outcome: inactive

CG10510 (GeneID 40341)
- mitotic cells, replicate 1: 7
- Outcome: inactive

Cby (GeneID 42574)
- mitotic cells, replicate 1: 8
- Outcome: inactive
